Experimental data: PubChem BioAssay AID504784 (Drosophila RNAi Screening Center, 2011)
The screen tested about 17,000 reagents; shown is an unselected part of those with a known target gene and a result. 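Each column is one replicate's B-score; the combined score over replicates was not deposited, so single values may mislead.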 A plus sign joins genes that one reagent is predicted to hit. Not all columns of the deposit are shown.

- Screen: 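Fly genes whose silencing alters how much lipid cells keep in droplets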 (primary screen)
- System: Drosophila Kc167 embryonic cells
- Reagent: long dsRNA against Drosophila genes, about 250 ng dsRNA per well
- Duration: 4 days
- Conditions: cells fed 400 µM oleic acid bound to BSA
- Measured: 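Cells imaged and segmented; ratio of lipid droplet area to nuclear area, log-transformed, then normalised as a B-score over the screen; higher means more stored lipid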
- Reading the numbers: droplet/nuclear area B-score: higher = more stored lipid (overstorage)

droplet/nuclear area B-score, replicate 1, by target gene and reagent
Duox (Dual oxidase): DRSC00571 -0.181
CG42360: DRSC04224 -0.878
vari (varicose): DRSC03202 -0.142
RfC4 (Replication factor C subunit 4): DRSC08691 -1.82
CG5021: DRSC10469 0.0472
CG15249: DRSC17978 -0.226
l(2)34Fc (lethal (2) 34Fc): DRSC01910 2.82
Asator: DRSC17136 -0.938
Or33b (Odorant receptor 33b): DRSC03387 0.083
Pnn (Pinin): DRSC16415 1.04
sob: DRSC00838 1.09
CG8468: DRSC07190 1.52
rux (roughex): DRSC18829 0.417
Nab2 (Nuclear polyadenosine RNA-binding 2): DRSC14158 2.3
CG5567: DRSC10517 0.129
Rcd-1 (Required for cell differentiation 1): DRSC19569 -0.0329
twi (twist): DRSC04720 -2.27; DRSC23185 2.06
Ktch (Ketchup): DRSC15094 1.12
CG31337: DRSC12981 0.195
fus (fusilli): DRSC05569 0.344; DRSC07107 0.332
Cyp28a5 (Cytochrome P450 28a5): DRSC03297 2.76
CG8916: DRSC20120 0.867
CG33494: DRSC13715 1.39
CG33791 + CG12105 + CG18170: DRSC08387 -0.34
Cnot4 (CCR4-NOT transcription complex subunit 4): DRSC02830 0.851; DRSC02831 1.61
Gnpnat (Glucosamine-phosphate N-acetyltransferase): DRSC15405 -0.652
CG8042: DRSC09676 -1.1
Cpr11A (Cuticular protein 11A): DRSC19861 -1.24
RpL24-like (Ribosomal protein L24-like): DRSC16111 1.08
CG6576: DRSC10663 1.33
Stip1 (Stress induced phosphoprotein 1): DRSC00756 0.373
Cyt-c-p (Cytochrome c proximal): DRSC03310 7.73
D19A: DRSC11133 3.14

In a second layout: entries from further up.
| Target gene | DRSC id | droplet/nuclear area B-score, replicate 1 |
| --- | --- | --- |
| RpL24-like (Ribosomal protein L24-like) | DRSC16111 | 1.08 |
| CG6576 | DRSC10663 | 1.33 |
| Stip1 (Stress induced phosphoprotein 1) | DRSC00756 | 0.373 |

Next records follow.
droplet/nuclear area B-score, replicate 1, by target gene and reagent
obe (obelus): DRSC15736 -0.0953
CG8927: DRSC16458 -0.107
CG11986: DRSC14461 2.29
CG10918: DRSC20472 -1.4
Ag5r2 (Antigen 5-related 2): DRSC19328 -1.13
RNaseX25 (Ribonuclease X25): DRSC11259 -1.56
CG12084: DRSC08247 -1.04
Pp1-13C (Protein phosphatase 1 at 13C): DRSC20269 -0.775; DRSC23305 0.00268
CG34047 (retired record): DRSC07857 -1.01; DRSC21689 -0.00121
CG10749: DRSC09798 -0.403
CG42457 (retired record) + cpo: DRSC13273 -0.00469; DRSC14503 0.803; DRSC15327 1.45; DRSC16926 0.622; DRSC23006 0.304
nrm (neuromusculin): DRSC11599 -0.406; DRSC11897 -1.57
Pp2A-29B (Protein phosphatase 2A at 29B): DRSC03400 1.53
Galt (Galactose-1-phosphate uridylyltransferase): DRSC03161 -3.38
CG11327: DRSC02146 0.266
OtopLc (Otopetrin-like c): DRSC18082 -1.54; DRSC18083 0.167; DRSC18132 -0.28
ATPCL (ATP citrate lyase): DRSC05913 -1.35
nAChRalpha4 (nicotinic Acetylcholine Receptor alpha4): DRSC11925 1.85
Arr2 (Arrestin 2): DRSC09670 0.924
CG32026: DRSC08950 -0.521
Tsp42Ep (Tetraspanin 42Ep): DRSC06871 -1.31
Zip42C.2 (Zinc/iron regulated transporter-related protein 42C.2): DRSC05004 0.721
Ppa (Partner of paired): DRSC04598 -2.7
CNBP (CCHC-type zinc finger nucleic acid binding protein): DRSC04116 -0.798; DRSC04419 -1.52; DRSC21317 1.13
CG6356: DRSC16026 1.06
ITP (Ion transport peptide): DRSC04222 0.0924
CG8028: DRSC20075 1.12
CG15198: DRSC19645 0.562
step (steppke): DRSC03694 -1.67; DRSC03699 0.0514
Vps20 (Vacuolar protein sorting 20): DRSC04448 -0.712
IP3K2 (Inositol 1,4,5-triphosphate kinase 2): DRSC19500 -0.867; DRSC19747 -0.618; DRSC22614 0.0281
CG1463: DRSC19603 1.29
CG7407: DRSC11824 -0.248
